Construct, isoform or probe ends are uncertain for at least one entry. A weaker result is weaker than the reference pair of the same experiment. At least one verdict was read from the data and is not stated in words by the source. Protein sequences can lack the tags named with them.

Experimental findings from publication PMC5663514, “Biochemical characterization of Borrelia burgdorferi’s RecA protein” are described below.

The target in this series is T1, B. burgdorferi RecA (Borrelia burgdorferi B31) (UniProt Q59180).
T1 sequence (looked up, limits assumed): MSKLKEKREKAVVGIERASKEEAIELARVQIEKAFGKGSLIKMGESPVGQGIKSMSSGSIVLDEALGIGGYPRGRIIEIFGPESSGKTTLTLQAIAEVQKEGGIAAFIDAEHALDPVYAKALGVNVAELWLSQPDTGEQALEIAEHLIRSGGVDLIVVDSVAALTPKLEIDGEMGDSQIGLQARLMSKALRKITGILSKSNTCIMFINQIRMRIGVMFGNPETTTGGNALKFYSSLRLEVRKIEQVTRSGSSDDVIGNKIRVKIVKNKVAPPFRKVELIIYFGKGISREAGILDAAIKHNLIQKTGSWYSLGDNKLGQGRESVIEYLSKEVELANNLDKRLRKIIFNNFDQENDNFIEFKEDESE
Kind of series: EMSA with glutaraldehyde protein-protein crosslinking. The settings on record: 2 mM Mg2+, 25 mM HEPES pH 7.6, 2 mM MgCl2, 1 mM DTT, 50 mM NaCl, 10 nM DNA molecules, 30°C 5 min, then 0.033% glutaraldehyde 5 min at 20°C/room temperature, recombinant protein. On the technique in general: Mobility shift assays separate free from complexed probe on a gel.

In the case of “TGCAGGCATGCAAGCTTGGCGTAATCATGGTCATAGCTGTTTCCTGTGTGAAATTGTTATCCGCTCACAATTCCACACAACATACGAGCCGGAAG [OGCB396 95 nt ssDNA]”, the binding result (no ATP, lower affinity than with ATP, +/- 2 mM ATP, single-stranded DNA) is listed as “binds”.

Consider “TGCAGGCATGCAAGCTTGGCGTAATCATGGTCATAGCTGTTTCCTGTGTGAAATTGTTATCCGCTCACAATTCCACACAACATACGAGCCGGAAG (double strand) [OGCB396/OGCB742 95 bp dsDNA]”, for which the binding result (2 mM ATP, ssDNA preferred over dsDNA) is “binds more weakly” and the binding result (no ATP, ssDNA preferred over dsDNA, +/- 2 mM ATP) is “binds more weakly”.
